Reference: patent publication US20020110853A1
Results are given in words; binding and its absence hold for the method and conditions named. In cells and extracts the contact can be indirect. Some results given as binding are weak or reduced against the parent protein; the word gives no strength. Sequences can lack the tags named with a protein.

Target: T1, GST fusion of the C-terminal 29 amino acids of TWEAKR (TWEAKR cytoplasmic domain) (human)
T1 sequence: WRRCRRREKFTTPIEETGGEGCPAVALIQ
Test: GST pull-down of 35S-labeled TRAF from reticulocyte lysate, SDS-PAGE, autoradiography

binding: binds
B1: TRAF 1 (protein, UniProt Q13077 1-416, looked up)
chain: MASSSGSSPRPAPDENEFPFGCPPTVCQDPKEPRALCCAGCLSENPRNGEDQICPKCRGEDLQSISPGSRLRTQEKAHPEVAEAGIGCPFAGVGCSFKGSPQSVQEHEVTSQTSHLNLLLGFMKQWKARLGCGLESGPMALEQNLSDLQLQAAVEVAGDLEVDCYRAPCSESQEELALQHFMKEKLLAELEGKLRVFENIVAVLNKEVEASHLALATSIHQSQLDRERILSLEQRVVELQQTLAQKDQALGKLEQSLRLMEEASFDGTFLWKITNVTRRCHESACGRTVSLFSPAFYTAKYGYKLCLRLYLNGDGTGKRTHLSLFIVIMRGEYDALLPWPFRNKVTFMLLDQNNREHAIDAFRPDLSSASFQRPQSETNVASGCPLFFPLSKLQSPKHAYVKDDTMFLKCIVETST
modifications: 35S-methionine/cysteine labeled
